Results as given in PubChem BioAssay AID493014 (National Center for Advancing Translational Sciences (NCATS), 2011).
Some of the results follow. The main result of the screen is listed elsewhere. These columns were measured beside it and carry no call. Most of these compounds were active or inconclusive in the main read-out, so they are no random draw. The note in brackets gives the kind of curve behind each potency; many fits are weak.

Test: qHTS Assay to Find Inhibitors of Chronic Active B-Cell Receptor Signaling
Settings: ABC-DLBCL IkBa-CBG/CBR reporter, luminescence ratio (green luciferase fused to IkBa over red control in TMD8 lymphoma cells), 4 h
In short: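 Cell line TMD8 (human ABC DLBCL), stably expressing tet-inducible CBG68-IkBa fusion and CBR; IMDM/0.5% FBS; cpd up to 46 uM; dox induction, 4 h, 37C/5% CO2; dual luminescence; green/red ratio; MG132 control.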

[1] = measured here: CBR red luminescence, cell number
[2] = measured here: IkBa-CBG green luminescence

Structure (SMILES)	AC50 [1]	AC50 [2]
Cc1nc2c(ccc3c([N+](=O)[O-])cccc32)c(C)c1C	25.1 µM [falling, partial curve, poor fit]	
Cc1ccc(C(=O)Nc2ccc(Cl)cn2)cc1	10 µM [falling, partial curve, poor fit]	
Cc1ccc(/C=C/C(=O)O)cc1S(=O)(=O)Nc1ccc(C(=O)O)cc1	0.1 µM [rising, full curve, poor fit]	
COc1ccc(-c2csc(NC(=O)c3ccccc3NS(=O)(=O)c3ccc(C)cc3)n2)cc1	29.1 µM [falling, single point]	
O=C1C=CC(=O)N1CCNc1ncc(C(F)(F)F)cc1Cl	5.01 µM [falling, full curve]	35.5 µM [rising, single point]
O=C(NCc1cccnc1)c1cccc(S(=O)(=O)Nc2cccc(Cl)c2)c1	18.4 µM [falling, single point]	
O=C(Nc1ccccc1F)c1cc2nc(C(F)F)cc(C(F)F)n2n1	23.1 µM [falling, single point]	
CCN(CC)C(=O)[C@H]1C[C@H](CC(=O)NCCCN(C)C)C(=O)N2CCc3c([nH]c4ccc(Cl)cc34)[C@]12C	9.2 µM [falling, partial curve, poor fit]	
C[C@H](CO)N1C[C@H](C)[C@@H](CN(C)Cc2ccc(C(=O)O)cc2)Oc2ccc(NS(C)(=O)=O)cc2C1=O	20.6 µM [rising, partial curve]	
N/C(=N\OC(=O)c1cc(-c2ccccc2)nc2ccccc12)c1ccc(Cl)cc1	3.16 µM [rising, partial curve, poor fit]	
COc1ccc(NC2=CC(=O)CC(c3ccccc3)C2)c(OC)c1 (stereo not given)	35.5 µM [falling, single point]	15.8 µM [falling, single point]
CC(C(=O)NC1C=CS(=O)(=O)C1)N1C(=O)/C(=C\c2ccccc2)SC1=S (stereo not given)	7.08 µM [falling, partial curve]	
CC1CCCN(C(=O)c2ccncc2)C1 (stereo not given)	1.84 µM [rising, full curve, poor fit]	
COc1ccc(NS(=O)(=O)c2c(F)cc(F)c(Cl)c2F)cc1S(=O)(=O)N1CCCCC1	9.2 µM [falling, partial curve, poor fit]	
CCOC(=O)c1cnc(SC)nc1Sc1ccccc1Cl	18.4 µM [rising, single point]	
COC(=O)C1=C(C)NC(=S)NC1c1ccc(OC(=O)c2ccco2)cc1 (stereo not given)	35.5 µM [rising, single point]	
O=C(c1ccc2c(c1)OCO2)N(Cc1ccco1)C1(C(=O)NC2CCCCC2)CCCCC1	32.6 µM [falling, single point]	
Cc1ccccc1C(=O)NNC(=O)/C=C\C(=O)O	3.16 µM [falling, full curve]	
COc1ccccc1NC(=O)CSc1nnc(-c2ccccn2)o1	2 µM [falling, full curve, poor fit]	
COc1ccc2occ(C(=O)c3coc4ccc(O)c(CN(C)C)c34)c2c1	7.08 µM [falling, partial curve]	
COc1cc(-c2nc(-c3ccccn3)no2)cc(OC)c1OC	17.8 µM [falling, single point]	

Structure (SMILES)	AC50 [1]	AC50 [2]
Cc1ccc(NC(=O)NC(=O)N(C(C)C)S(=O)(=O)c2ccc(C)cc2)cc1	20 µM [rising, single point]	
CC1=C(C(=O)OCC(Cl)(Cl)Cl)N2C(=O)C(NC(=O)Cc3ccccc3)C2SC1 (stereo not given)	11.2 µM [falling, partial curve]	
Cc1ccc(NC(=O)CN(C)C(=O)COC(=O)[C@@H](NC(=O)c2ccccc2F)C(C)C)cc1	8.2 µM [rising, partial curve]	
COc1cc(OC)c2c(-c3cccc(-c4sccc4C(C)=O)c3)cc(=O)oc2c1	18.4 µM [rising, partial curve]	20.6 µM [falling, partial curve]
O=C1NCCc2c1[nH]c1c(Cl)ccc(Cl)c21	8.91 µM [falling, partial curve]	
COc1ccc(C(=O)O)cc1S(=O)(=O)Nc1cccc(C)c1	0.164 µM [falling, full curve, poor fit]	
Cc1ccc(-c2cn(-c3ccccc3)c(SCC(=O)NC3CCS(=O)(=O)C3)n2)cc1C (stereo not given)	4.11 µM [rising, partial curve, poor fit]	
COc1cccc(-c2noc(-c3cccs3)n2)c1	1.46 µM [rising, partial curve, poor fit]	
CCCCC(NC(=O)CCc1c(C)c2cc3c4c(oc3c(C)c2oc1=O)CCCC4)C(=O)O (stereo not given)	0.112 µM [rising, full curve, poor fit]	
O=C(C(Cc1ccccc1)n1cccc1)N1CCc2ccccc21 (stereo not given)	23.1 µM [falling, single point]	
C=C1CCC[C@]2(C)C[C@H]3OC(=O)C(CN4CCOCC4)[C@H]3C[C@@H]12 (stereo not given in full)	14.1 µM [falling, single point]	
Cc1ccc(CNc2ccc(N3CCOCC3)cc2)s1	29.1 µM [rising, single point]	
COc1ccccc1Nc1nc(-c2sc(N)nc2C)cs1	7.94 µM [falling, partial curve]	
CCOc1nc(NCCN2CCOCC2)nc(Nc2ccc(C)cc2)n1	0.0891 µM [falling, full curve, poor fit]	
C[C@H](CO)N1C[C@H](C)[C@@H](CN(C)Cc2ccc(C(=O)O)cc2)Oc2ccc(NC(=O)Cn3cnnn3)cc2C1=O	23.1 µM [rising, partial curve, poor fit]	
COc1ccccc1Nc1nnc(Cc2ccccc2)c(=O)[nH]1	7.94 µM [falling, partial curve, poor fit]	
CCc1nc(Nc2ccc(NC(C)=O)cc2)c2oc3ccccc3c2n1	3.55 µM [falling, partial curve, poor fit]	
CC(=O)Nc1cccc(C(=O)NC(C)c2ccc(S(N)(=O)=O)cc2)c1 (stereo not given)	6.51 µM [rising, single point]	
O=C(Nc1ccc2nccnc2c1)c1cnccn1	29.1 µM [falling, single point]	
COc1ccc(C2CC(c3ccccc3)=NN2C(=O)CN2N=NC3C(=O)N(c4cccc(F)c4)C(=O)C32)cc1 (stereo not given)	23.1 µM [rising, single point]	
CN(C)/C=C1/N=C(c2ccccc2)OC1=O	29.1 µM [rising, partial curve, poor fit]	

Structure (SMILES)	AC50 [1]	AC50 [2]
O=C(O)CCCCN1C(=O)/C(=C\c2ccc(OCc3ccccc3)c(OCc3ccccc3)c2)SC1=S	35.5 µM [falling, single point]	
COc1ccc(-c2nnc(SCC(=O)OC3CCCCC3)o2)cc1OC	35.5 µM [falling, single point]	
NS(=O)(=O)c1ccc(CCNC(=O)CCCCCn2c(=S)[nH]c3ccc(Br)cc3c2=O)cc1	14.1 µM [falling, partial curve]	
Cc1[nH]c2ccccc2c(=O)c1CN(C)Cc1ccccc1	29.1 µM [falling, single point]	
Cc1ccc(OCc2cc(C(=O)N3CCC(C(O)C(C)C)CC3)no2)cc1C (stereo not given)	25.1 µM [falling, single point]	
CCC(=O)N(Cc1cc(=O)[nH]c2ccccc12)c1ccccc1C	11.2 µM [falling, single point]	
CCOC(=O)c1c(C)[nH]c(C)c1S(=O)(=O)NCC1CCN(Cc2cccc(Cl)c2)CC1	14.1 µM [rising, partial curve]	
COC(=O)c1ccc(N2CCOCC2)c(F)c1	3.66 µM [rising, full curve]	
O=C1Nc2ccccc2N(O)N1c1cc(-c2ccccc2Cl)no1	9.2 µM [falling, partial curve, poor fit]	
C=CCC[C@@H](Cc1ccc(F)cc1)C(=O)OC[C@@H](Cc1c[nH]c2ccccc12)NC(=O)[C@H](CC=C)CC(=O)NCCO	29.1 µM [falling, single point]	
Cc1cc(-n2c(C)cc(C(=O)CCl)c2C)no1		35.5 µM [falling, single point]
COc1ccccc1N1CCN(C(=S)NC(=O)/C=C/c2ccc(F)cc2)CC1	22.4 µM [falling, single point]	
O=C1N/C(=N/Nc2ccccc2)S/C1=C\c1ccccc1	3.55 µM [falling, partial curve, poor fit]	
O=C(OCc1cc(Cl)cc2c1OCOC2)c1cccnc1Cl	25.9 µM [rising, partial curve]	
Cc1ccc(C(=O)c2cc3ccccc3o2)cc1C	5.8 µM [rising, full curve, poor fit]	
CSc1nnc(C2CCCN(CC(=O)Nc3ccccc3N3CCOCC3)C2)n1C(C)C (stereo not given)	10 µM [falling, partial curve, poor fit]	
Cc1nn(CC(O)COc2ccc3c(c2)CCC3)c(C)c1C (stereo not given)	18.4 µM [rising, partial curve, poor fit]	
Cc1cc(-c2ccccc2)nc(-c2ccccc2)c1C	17.8 µM [falling, partial curve, poor fit]	
CCN1C(=O)c2cccc3c(S(=O)(=O)Nc4ccccc4)ccc1c23	35.5 µM [rising, single point]	
COc1ccc(NC(=O)CN(Cc2ccco2)Cc2ccco2)cc1S(=O)(=O)N1CCCCC1	25.9 µM [falling, single point]	
